Measured values published in patent publication US20230092648A1, “COMBINATION CONTAINING A DUOCARMYCIN DERIVATIVE-COMPRISING ANTIBODY-DRUG CONJUGATE AND THIOSULFATE” (BYONDIS B.V., priority 2020, published 2023).
Where a name gives a salt, the structure may show the parent alone. Some compounds share one wording; it may come from a single statement.

Assay: Detoxification experiments with thiol compounds: LC-MS of thiol + SYD986 in acetonitrile/water (1:1)
Details: SYD986 1 μM, thiol 6.8 mM (cysteamine)/10 mM (other thiols)

| Structure (SMILES) | formation of a reaction product with SYD986 (LC-MS) |
| --- | --- |
| O=S(O)(O)=S [STS, sodium thiosulfate] | did react |
| CC(=O)N[C@@H](CS)C(=O)O [N-Acetylcysteine] | did not form a reaction product |
| N[C@@H](CCC(=O)N[C@@H](CS)C(=O)NCC(=O)O)C(=O)O [glutathione, L-Glutathione] | did not form a reaction product |
| Cl.NCCS [cysteamine, cysteamine hydrochloride] | did not form a reaction product |
| O=S(=O)(O)CCS [MESNA, sodium salt of 2-mercaptoethanesulfonic acid] | did not form a reaction product |
